{"source": "PubChem BioAssay (NCATS)", "note": "The list shows a part of the results. The main result of the screen is listed elsewhere. These columns were measured beside it and carry no call. Compounds called inactive in the main read-out are mostly missing here. Words in brackets tell the shape of the fitted curve; partial curves, single points and poor fits give uncertain potencies."}
{"assay": "S16 Schwann cell PMP22 intronic element beta-lactamase assay (AID 624044)", "settings": "S16 rat Schwann cells, PMP22 element beta-lactamase FRET, 24 h; measured here: 460 nm blue channel", "summary_of_the_method": "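Beta-lactamase reporter under a PMP22 intronic regulatory element in stable S16 rat Schwann cells; 24 h compound exposure. 460 nm blue signal normalized between DMSO (0%) and potassium clavulanate, with 535 nm FRET tracking viability; curves classed by r2 and response.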"}
{"smiles": "CC1CCC(O)C/C1=C\\C=C1/CCCC2(C)C1CCC2C(C)/C=C/C(C)C(C)C", "note": "(centres undefined)", "AC50": "8.91 µM [falling, single point]"}
{"smiles": "CCCCC(=O)O[C@]1(C(=O)CO)CCC2C3CCC4=CC(=O)CCC4(C)C3C(O)CC21C", "note": "(some centres undefined)", "AC50": "3.98 µM [falling, full curve]"}
{"smiles": "Cc1ccc(/C=C2/C(=O)C3(C)CCC2C3(C)C)cc1", "note": "(centres undefined)", "AC50": "12.6 µM [falling, partial curve, poor fit]"}
{"smiles": "CC(N)C(=O)NCC(=O)NC1CSSCC(C(=O)O)NC(=O)C(CO)NC(=O)C(C(C)O)NC(=O)C(Cc2ccccc2)NC(=O)C(C(C)O)NC(=O)C(CCCCN)NC(=O)C(Cc2c[nH]c3ccccc23)NC(=O)C(Cc2ccccc2)NC(=O)C(Cc2ccccc2)NC(=O)C(CC(N)=O)NC(=O)C(CCCCN)NC1=O", "note": "(centres undefined)", "AC50": "14.1 µM [falling, single point]"}
{"smiles": "O=C(O)CCC(=O)O", "AC50": "1.58 µM [falling, full curve, poor fit]"}
{"smiles": "O=C(OC[C@@H](O)CO)c1ccccc1Nc1ccnc2cc(Cl)ccc12", "AC50": "9.51 µM [rising, partial curve, poor fit]"}
{"smiles": "CCCCCCCCCCCCCC[n+]1ccc(C)cc1", "AC50": "15.8 µM [falling, partial curve]"}
{"smiles": "CC(C)(C)CC(C)(C)c1cc(Cc2cc(C(C)(C)CC(C)(C)C)cc(-n3nc4ccccc4n3)c2O)c(O)c(-n2nc3ccccc3n2)c1", "AC50": "0.316 µM [falling, full curve, poor fit]"}
{"smiles": "C=CC(C)(O)CC/C=C(\\C)CCC=C(C)C", "note": "(centres undefined)", "AC50": "7.07 µM [falling, full curve]"}
